Measurements reported in PubChem BioAssay AID686943 (Drosophila RNAi Screening Center, 2013)
The screen tested about 23,000 reagents; this is a random part of those that have a named target and a result. 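Extra replicates exist only for a retested subset of genes; insulin dose and duration not given; both raised and lowered dpERK matter.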 Names joined by + are all predicted targets of the reagent. The record does not give: the amount of reagent, the time to read-out.

Purpose: 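Search across the genome for regulators of signalling from receptor tyrosine kinase to ERK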 (primary screen)
System: Drosophila S2R+ haemocyte-like cells expressing YFP-tagged ERK (Rolled)
Reagent: long dsRNA against Drosophila genes
Conditions: insulin stimulation versus unstimulated cells; dose and duration not given
Read-out: 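Per-plate z-scores of phospho-ERK immunostaining normalised to YFP-tagged ERK, measured with and without insulin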
Scale: replicate 1, z-score of dpERK with insulin and replicate 2, z-score of dpERK with insulin: higher = more active ERK per ERK-YFP after insulin; replicate 1, z-score of dpERK under basal conditions: higher = more basal active ERK per ERK-YFP; replicate 1, z-score of ERK-YFP with insulin: higher = more YFP-tagged ERK signal

Gene | dsRNA | replicate 1, z-score of dpERK with insulin | replicate 2, z-score of dpERK with insulin | replicate 1, z-score of dpERK under basal conditions | replicate 1, z-score of ERK-YFP with insulin
Pex23 | DRSC10323 | 0.3 | 0 | 1 | 0.11
Pex23 | DRSC10645 | -0.14 | -0.17 | 0.05 | 0.14
GstE13 | DRSC06083 | 0.84 | 0.82 | 0.47 | 0.35
pen-2 | DRSC05722 | 0.27 | 0.13 | -0.28 | 0.66
Best4 | DRSC10792 | -0.37 | 0.41 | -0.71 | 0.42
Rox8 | DRSC16829 | -0.04 | -0.46 | -1.09 | 0.25
CG1441 | DRSC06448 | 0.53 | 0.18 | 0.1 | 0
Hcf | DRSC17143 | -1.1 | -0.62 | -2.03 | 2.19
lectin-46Cb | DRSC06611 | 0.75 | 0.4 | 1.32 | 0.45
Acer | DRSC01852 | 0.16 | -0.88 | -1.42 | 0.24
CG13157 | DRSC06282 | -0.31 | 0.29 | -0.39 | -0.56
Ugt37A1 | DRSC02114 | 0.67 | -0.54 | 0.45 | -0.59
CG13581 | DRSC04216 | 0.19 | 0.43 | -0.46 | -0.04
TrissinR | DRSC02334 | 0.16 | -0.44 | -1.58 | 1.66
TrissinR | DRSC02335 | -3.17 | -3.32 | -0.72 | 0.01
TrissinR | DRSC02336 | 0.49 | 0.18 | 0.18 | -0.62
Git | DRSC06620 | -0.38 | -0.08 | -0.9 | -0.52
CG43091 | DRSC13571 | 1.2 | -0.49 | -0.75 | 0.38
CG14423 | DRSC17920 | -0.27 | -0.26 | -0.63 | -0.57
ORY | DRSC22883 | 1.07 | 1.13 | 0.98 | -0.02
CG42850 (retired record) | DRSC00872 | 0.52 | -0.15 | -0.81 | -0.13
asRNA:CR31514 + CG12947 | DRSC14575 | 0.88 | 0.16 | 0.04 | -0.18
CG31178 | DRSC14590 | 0.6 | -0.67 | -0.27 | -0.07
CG10232 | DRSC14218 | 0.66 | -0.17 | -0.46 | 0.28
CG17377 | DRSC00950 | 0.94 | -0.34 | -0.08 | -0.28
CG17377 | DRSC02615 | -0.14 | 0.29 | 0.16 | 0.11
CG17377 | DRSC21811 | -3.56 | -0.23 | 0.81 | -1.26
ckn | DRSC06149 | 0.3 | 1.41 | 0.64 | 0.57
CG18190 | DRSC06714 | 0.17 | -0.16 | -0.49 | -0.08
CG1647 | DRSC15134 | 0.01 | 0.18 | 0.2 | 1.14
CG17242 | DRSC00493 | -0.2 | -0.36 | 0.3 | -0.72
eEF1beta | DRSC07419 | 1.13 | -0.44 | 0.1 | -0.54
CG30177 | DRSC22680 | 1.02 | 1.04 | 0.41 | 0.15
CG12547 | DRSC07759 | 0.6 | 0.45 | 0.68 | 0.26
Odj | DRSC16234 | -0.46 | -0.69 | -0.34 | 0.91
CG7457 | DRSC10849 | -0.57 | 0.26 | -0.41 | 0.71
Taf10b | DRSC00792 | 0.15 | 1.11 | 1.31 | -0.78
GlnRS | DRSC14140 | 0.15 | -0.07 | 0.35 | -0.26
CG7017 | DRSC10762 | 1.12 | 0.73 | -1.26 | -0.43
Rdh1 | DRSC06812 | 0.04 | 0.26 | -0.88 | 0.48
vnd | DRSC17360 | -0.97 | 0.53 | 1.99 | 1.28
vnd | DRSC18849 | 2.21 | 0.53 | 1.05 | -0.21
vnd | DRSC22487 | -1.42 | -2.41 | 0.88 | 2.34
CG32061 | DRSC22605 | 0.2 | 0.25 | -0.28 | -0.48
CG10035 | DRSC14177 | 0.49 | 0.03 | 0.03 | -0.04
Ubx | DRSC16891 | 0.59 | -0.61 | -1.05 | -0.25
CG18666 | DRSC02694 | -0.14 | -0.11 | 0.25 | 0.34
CG30413 | DRSC04001 | -0.22 | -0.02 | -1.19 | -0.25
CG1951 | DRSC15403 | -0.28 | -0.74 | -0.74 | 0.16
dnt | DRSC03522 | 0.65 | 0.3 | -0.09 | 0.22
CG17896 | DRSC18502 | 0.03 | 0.67 | 0.24 | 0.4
spel1 | DRSC03617 | -0.52 | -0.2 | 1.14 | 1.42
CG9004 | DRSC08617 | 0.7 | 0.2 | 0.37 | 0.35
tral | DRSC09779 | -0.94 | 0.04 | -1.07 | -2.05
Nazo | DRSC14343 | -0.92 | 0.01 | -0.69 | 2.41
CG17199 | DRSC15192 | -0.14 | 0.27 | 0.5 | -0.12
CR32511 | DRSC20697 | 0.06 | -2.51 | -0.27 | 0.01
